Reference: the supplement of paper PMC7666118
This is one part of the list.

Chains of the proteins cited; added tags and fusions are not shown. Lines headed by an entry give the natural chain unless they say otherwise; changes in a name come on top.
UniProt Q5GLZ8: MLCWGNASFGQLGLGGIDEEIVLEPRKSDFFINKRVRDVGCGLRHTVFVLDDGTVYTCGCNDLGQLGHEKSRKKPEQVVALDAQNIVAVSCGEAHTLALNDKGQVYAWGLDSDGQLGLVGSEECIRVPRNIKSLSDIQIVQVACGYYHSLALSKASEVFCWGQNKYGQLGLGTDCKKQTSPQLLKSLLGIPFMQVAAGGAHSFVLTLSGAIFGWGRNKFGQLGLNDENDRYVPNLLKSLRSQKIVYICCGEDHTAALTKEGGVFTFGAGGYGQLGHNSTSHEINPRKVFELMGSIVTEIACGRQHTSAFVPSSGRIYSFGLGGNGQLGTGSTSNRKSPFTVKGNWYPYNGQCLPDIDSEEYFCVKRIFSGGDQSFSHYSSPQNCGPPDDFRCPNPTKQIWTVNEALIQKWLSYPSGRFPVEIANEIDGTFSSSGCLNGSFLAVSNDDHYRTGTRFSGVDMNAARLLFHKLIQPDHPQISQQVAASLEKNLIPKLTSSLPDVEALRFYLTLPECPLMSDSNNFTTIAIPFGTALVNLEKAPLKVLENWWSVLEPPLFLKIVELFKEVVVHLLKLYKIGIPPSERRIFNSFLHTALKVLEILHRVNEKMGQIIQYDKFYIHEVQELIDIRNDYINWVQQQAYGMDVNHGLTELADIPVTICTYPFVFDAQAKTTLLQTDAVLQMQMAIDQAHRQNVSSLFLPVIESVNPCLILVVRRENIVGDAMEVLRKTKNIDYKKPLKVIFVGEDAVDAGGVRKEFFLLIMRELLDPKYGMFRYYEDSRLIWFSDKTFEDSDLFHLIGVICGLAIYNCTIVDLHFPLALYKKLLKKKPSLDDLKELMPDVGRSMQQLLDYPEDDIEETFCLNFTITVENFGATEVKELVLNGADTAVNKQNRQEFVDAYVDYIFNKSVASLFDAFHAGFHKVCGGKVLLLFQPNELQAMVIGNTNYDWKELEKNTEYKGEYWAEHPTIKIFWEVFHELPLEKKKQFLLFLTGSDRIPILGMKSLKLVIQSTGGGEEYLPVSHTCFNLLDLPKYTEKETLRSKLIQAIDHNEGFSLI
UniProt P46976: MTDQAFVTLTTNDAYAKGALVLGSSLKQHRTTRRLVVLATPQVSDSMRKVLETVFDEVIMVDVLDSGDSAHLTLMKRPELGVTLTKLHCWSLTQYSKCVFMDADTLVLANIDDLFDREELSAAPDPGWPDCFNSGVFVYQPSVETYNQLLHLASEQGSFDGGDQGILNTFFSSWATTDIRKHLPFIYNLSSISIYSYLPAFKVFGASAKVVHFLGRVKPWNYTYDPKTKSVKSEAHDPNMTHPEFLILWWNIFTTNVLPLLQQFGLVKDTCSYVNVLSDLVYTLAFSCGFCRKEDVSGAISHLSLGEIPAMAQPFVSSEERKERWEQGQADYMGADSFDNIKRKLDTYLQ
UniProt O75420: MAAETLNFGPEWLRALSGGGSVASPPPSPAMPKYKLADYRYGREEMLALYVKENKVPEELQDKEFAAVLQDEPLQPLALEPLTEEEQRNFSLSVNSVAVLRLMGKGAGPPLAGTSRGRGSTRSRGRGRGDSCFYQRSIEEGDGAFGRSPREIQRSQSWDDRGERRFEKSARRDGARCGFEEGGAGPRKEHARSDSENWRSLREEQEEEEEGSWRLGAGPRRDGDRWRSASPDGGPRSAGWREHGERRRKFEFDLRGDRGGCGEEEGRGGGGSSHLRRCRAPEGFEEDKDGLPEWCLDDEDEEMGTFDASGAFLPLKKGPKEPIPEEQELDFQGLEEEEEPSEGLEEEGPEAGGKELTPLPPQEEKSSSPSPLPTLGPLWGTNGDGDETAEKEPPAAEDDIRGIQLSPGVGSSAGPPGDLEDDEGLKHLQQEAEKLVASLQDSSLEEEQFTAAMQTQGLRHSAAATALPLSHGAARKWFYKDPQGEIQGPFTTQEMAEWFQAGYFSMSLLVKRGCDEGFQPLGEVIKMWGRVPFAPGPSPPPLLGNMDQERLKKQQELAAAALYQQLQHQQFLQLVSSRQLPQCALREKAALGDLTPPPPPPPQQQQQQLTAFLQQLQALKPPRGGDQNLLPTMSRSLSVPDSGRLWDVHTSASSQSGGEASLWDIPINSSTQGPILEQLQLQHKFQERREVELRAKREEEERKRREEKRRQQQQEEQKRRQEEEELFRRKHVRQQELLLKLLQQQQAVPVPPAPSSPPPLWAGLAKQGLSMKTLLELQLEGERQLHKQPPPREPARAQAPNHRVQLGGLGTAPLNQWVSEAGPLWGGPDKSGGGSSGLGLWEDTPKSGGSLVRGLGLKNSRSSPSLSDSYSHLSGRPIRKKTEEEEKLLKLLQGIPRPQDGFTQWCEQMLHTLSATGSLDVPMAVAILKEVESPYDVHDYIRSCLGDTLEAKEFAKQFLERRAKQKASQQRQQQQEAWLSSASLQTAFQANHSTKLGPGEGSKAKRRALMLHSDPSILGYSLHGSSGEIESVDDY
UniProt Q9Y5Q8: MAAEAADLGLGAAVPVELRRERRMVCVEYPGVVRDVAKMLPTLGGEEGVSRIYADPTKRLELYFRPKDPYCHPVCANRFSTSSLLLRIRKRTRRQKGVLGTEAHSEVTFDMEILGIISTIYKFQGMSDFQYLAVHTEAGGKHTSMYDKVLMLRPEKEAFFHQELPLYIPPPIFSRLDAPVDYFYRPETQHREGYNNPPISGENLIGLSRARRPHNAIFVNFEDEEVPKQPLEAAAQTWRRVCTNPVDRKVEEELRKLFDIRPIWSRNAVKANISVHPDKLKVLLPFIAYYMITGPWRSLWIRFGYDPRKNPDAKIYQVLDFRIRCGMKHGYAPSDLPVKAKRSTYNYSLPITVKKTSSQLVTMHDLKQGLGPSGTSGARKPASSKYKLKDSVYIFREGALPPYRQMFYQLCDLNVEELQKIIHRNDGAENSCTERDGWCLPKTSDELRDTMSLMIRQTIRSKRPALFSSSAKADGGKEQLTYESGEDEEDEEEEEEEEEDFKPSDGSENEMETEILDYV
UniProt Q92759: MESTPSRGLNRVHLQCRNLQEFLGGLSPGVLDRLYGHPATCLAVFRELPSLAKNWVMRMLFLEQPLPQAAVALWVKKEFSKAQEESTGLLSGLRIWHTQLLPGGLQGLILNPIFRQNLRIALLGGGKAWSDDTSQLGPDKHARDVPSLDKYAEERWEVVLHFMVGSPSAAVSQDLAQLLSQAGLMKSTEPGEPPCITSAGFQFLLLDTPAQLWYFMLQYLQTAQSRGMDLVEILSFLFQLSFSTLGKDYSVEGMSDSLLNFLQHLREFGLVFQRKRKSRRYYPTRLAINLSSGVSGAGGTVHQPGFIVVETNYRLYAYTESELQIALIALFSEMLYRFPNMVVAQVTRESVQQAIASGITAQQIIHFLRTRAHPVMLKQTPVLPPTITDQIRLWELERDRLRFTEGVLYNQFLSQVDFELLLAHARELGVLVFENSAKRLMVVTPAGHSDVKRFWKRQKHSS
UniProt P19367: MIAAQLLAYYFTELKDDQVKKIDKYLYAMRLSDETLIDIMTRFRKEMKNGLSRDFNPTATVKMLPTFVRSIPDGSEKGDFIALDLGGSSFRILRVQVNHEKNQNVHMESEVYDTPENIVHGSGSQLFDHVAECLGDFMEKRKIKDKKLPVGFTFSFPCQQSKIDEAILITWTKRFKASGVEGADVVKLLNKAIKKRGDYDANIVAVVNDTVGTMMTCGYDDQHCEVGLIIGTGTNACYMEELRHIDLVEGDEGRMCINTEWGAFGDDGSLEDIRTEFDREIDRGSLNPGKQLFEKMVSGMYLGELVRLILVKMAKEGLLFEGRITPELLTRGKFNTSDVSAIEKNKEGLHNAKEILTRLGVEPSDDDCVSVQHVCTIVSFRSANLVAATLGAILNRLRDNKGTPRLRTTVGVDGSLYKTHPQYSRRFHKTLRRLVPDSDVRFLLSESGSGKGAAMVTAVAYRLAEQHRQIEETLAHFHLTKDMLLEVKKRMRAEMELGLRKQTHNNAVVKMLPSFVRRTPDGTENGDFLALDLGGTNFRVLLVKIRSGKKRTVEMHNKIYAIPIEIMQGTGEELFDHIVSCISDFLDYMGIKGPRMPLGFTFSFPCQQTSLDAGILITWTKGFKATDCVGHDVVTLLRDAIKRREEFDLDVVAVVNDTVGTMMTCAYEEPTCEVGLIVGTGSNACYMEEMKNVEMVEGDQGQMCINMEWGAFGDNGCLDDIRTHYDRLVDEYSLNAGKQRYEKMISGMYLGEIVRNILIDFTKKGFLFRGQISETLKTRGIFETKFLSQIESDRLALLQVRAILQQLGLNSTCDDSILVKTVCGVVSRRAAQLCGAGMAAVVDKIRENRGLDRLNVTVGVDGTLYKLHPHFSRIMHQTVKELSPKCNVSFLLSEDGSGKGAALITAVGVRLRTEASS
UniProt O95479: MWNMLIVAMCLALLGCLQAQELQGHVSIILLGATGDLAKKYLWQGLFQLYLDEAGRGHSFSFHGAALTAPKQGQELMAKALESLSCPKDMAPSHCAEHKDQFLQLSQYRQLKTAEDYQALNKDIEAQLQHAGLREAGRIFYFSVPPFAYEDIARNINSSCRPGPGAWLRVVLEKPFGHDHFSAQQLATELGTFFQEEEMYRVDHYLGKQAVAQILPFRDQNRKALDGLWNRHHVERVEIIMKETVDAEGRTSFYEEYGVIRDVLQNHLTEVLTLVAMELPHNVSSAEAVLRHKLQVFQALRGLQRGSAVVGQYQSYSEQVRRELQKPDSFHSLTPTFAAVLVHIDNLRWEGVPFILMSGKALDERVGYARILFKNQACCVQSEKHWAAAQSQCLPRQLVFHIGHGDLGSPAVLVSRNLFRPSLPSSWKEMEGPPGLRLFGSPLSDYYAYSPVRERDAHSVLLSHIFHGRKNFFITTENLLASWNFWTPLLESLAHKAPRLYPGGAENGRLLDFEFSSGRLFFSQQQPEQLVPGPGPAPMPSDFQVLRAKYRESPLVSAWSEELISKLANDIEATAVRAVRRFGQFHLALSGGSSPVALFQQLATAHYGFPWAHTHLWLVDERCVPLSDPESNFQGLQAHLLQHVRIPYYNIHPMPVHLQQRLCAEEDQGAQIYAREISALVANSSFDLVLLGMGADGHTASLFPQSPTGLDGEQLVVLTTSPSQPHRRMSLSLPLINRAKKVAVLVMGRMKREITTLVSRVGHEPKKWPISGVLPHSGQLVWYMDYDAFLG
UniProt O15379: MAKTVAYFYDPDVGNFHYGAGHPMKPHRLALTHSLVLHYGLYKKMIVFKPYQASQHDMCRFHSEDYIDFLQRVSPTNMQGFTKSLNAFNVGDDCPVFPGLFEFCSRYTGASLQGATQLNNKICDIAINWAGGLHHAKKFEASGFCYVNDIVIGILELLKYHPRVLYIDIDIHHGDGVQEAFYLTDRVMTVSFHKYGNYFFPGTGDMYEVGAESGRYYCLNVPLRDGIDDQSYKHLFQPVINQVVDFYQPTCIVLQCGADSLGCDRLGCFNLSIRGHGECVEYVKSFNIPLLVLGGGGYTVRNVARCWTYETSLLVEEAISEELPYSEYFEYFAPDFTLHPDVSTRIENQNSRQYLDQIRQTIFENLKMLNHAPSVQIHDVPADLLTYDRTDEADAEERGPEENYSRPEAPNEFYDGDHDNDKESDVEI

compound: COc1ccc(Cn2ccc3ccc(C(=O)NO)cc32)cc1; experiment: dose-dependent thermal stabilisation call (2D-TPP, DLPTP, 10% FDR) (binary (1 = stabilised)); higher = stabilised by the compound; conditions: system: HL-60 intact cells; concentration range 0.04-10 µM

| Target | dose-dependent thermal stabilisation call |
| --- | --- |
| HERC4 (UniProt Q5GLZ8) | inactive: 0 |
| GYG1 (UniProt P46976) | inactive: 0 |
| HEATR7A (UniProt Q8NDA8) | inactive: 0 |
| GIGYF1 (UniProt O75420) | inactive: 0 |
| GTF3C5 (UniProt Q9Y5Q8) | inactive: 0 |
| GTF2H4 (UniProt Q92759) | inactive: 0 |
| HK1 (UniProt P19367) | inactive: 0 |
| H6PD (UniProt O95479) | inactive: 0 |
| HDAC3 (UniProt O15379) | inactive: 0 |
